PubChem BioAssay AID743121 – NCATS, 2013
Here is an unselected part of about 26,000 deposited reagents. 167 of all reagents (0.63%) were called active. 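Calls are per gene from RSA p-values that are not deposited; an individual active-marked siRNA can sensitise only weakly.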 Reagents against one gene are numbered here.

- Test: 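Knock-downs that sensitise breast cancer cells to camptothecin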 (primary screen)
- Cells: MDA-MB-231 cells, a human breast cancer line
- Reagent: single siRNA against human genes, 20 nM siRNA (0.8 pmol per well)
- Timing: 120 h (drug added 48 h after transfection, read 72 h later)
- Treatment: camptothecin 20 nM (about EC30) for 72 h; vehicle 0.1% DMSO in parallel plates
- Read-out: 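CellTiter-Glo ATP signal, scaled to control siRNA as percent viability; sensitisation given as log2 of untreated divided by camptothecin-treated viability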
- Reading the numbers: log2 vehicle/camptothecin viability: higher = stronger sensitisation to camptothecin; viability with camptothecin and viability without drug: higher = more viable cells
- Active means: 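Each gene scored by redundant siRNA activity (RSA) over its individual siRNA ratios; a gene is called active at p < 0.001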

gene symbol	reagent	log2 vehicle/camptothecin viability	viability with camptothecin (% of control)	viability without drug (% of control)	outcome
NOS2	1	-0.626	54.4	35.3	inactive
NOS2	2	0.169	47.1	52.9	inactive
NOS2	3	-0.175	106	93.7	inactive
NOS2	4	-0.453	66.1	48.3	inactive
FASTK	1	-0.834	61.6	34.5	inactive
FASTK	2	-0.403	90.3	68.3	inactive
FASTK	3	-0.365	73.7	57.2	inactive
FASTK	4	-0.221	116	99.4	inactive
PLCD4	1	-0.289	107	87.7	inactive
PLCD4	2	-0.102	105	97.8	inactive
PLCD4	3	-0.0149	76.3	75.5	inactive
PLCD4	4	-0.572	122	82.1	inactive
CPN1	1	0.0718	91.4	96	inactive
CPN1	2	0.195	91.5	105	inactive
CPN1	3	0.362	51.2	65.8	inactive
CPN1	4	0.0285	76.9	78.4	inactive
XDH	1	-0.322	76	60.8	inactive
XDH	2	0.0377	82.1	84.3	inactive
XDH	3	0.225	54.1	63.3	inactive
XDH	4	-0.162	62	55.4	inactive
HNF4A	1	-0.153	45.6	41	inactive
HNF4A	2	-0.22	86.5	74.3	inactive
HNF4A	3	-0.174	80.8	71.6	inactive
SCAF11	1	-0.202	116	101	inactive
SCAF11	2	-0.334	47	37.3	inactive
SCAF11	3	-0.122	83.3	76.5	inactive
SCAF11	4	0.0732	37.7	39.7	inactive
CYP2W1	1	-0.115	46.1	42.6	inactive
CYP2W1	2	-0.136	110	99.9	inactive
CYP2W1	3	0.0309	60	61.3	inactive
CYP2W1	4	-0.117	104	95.4	inactive
AKAP10	1	-0.399	84.4	64	inactive
AKAP10	2	-0.429	96.2	71.4	inactive
AKAP10	3	-0.0293	74.6	73.1	inactive
AKAP10	4	-0.086	73.9	69.7	inactive
PRH1	1	-0.173	60	53.2	inactive
PRH1	2	-0.287	98	80.3	inactive
PRH1	3	-0.511	68.1	47.8	inactive
PAEP	1	-0.364	79	61.4	inactive
PAEP	2	-0.302	35.2	28.5	inactive
PAEP	3	-0.0823	77	72.7	inactive
PAEP	4	0.453	40.5	55.4	inactive
EN1	1	-0.368	96	74.4	inactive
EN1	2	-0.42	71.1	53.1	inactive
EN1	3	0.018	96	97.2	inactive
EN1	4	-0.245	90.1	76	inactive
CORT	1	0.252	97.3	116	inactive
CORT	2	0.233	74.9	88.1	inactive
CORT	3	-0.195	102	89.1	inactive
CORT	4	-0.0666	103	98.8	inactive
A2M	1	-0.0761	27.8	26.3	inactive
A2M	2	0.129	92.6	101	inactive
A2M	3	-0.0426	87.1	84.6	inactive
A2M	4	-0.568	127	85.9	inactive
ATP1A4	1	-0.223	94.7	81.1	inactive
ATP1A4	2	-0.224	107	91.7	inactive
ATP1A4	3	-0.584	68.4	45.7	inactive
ATP1A4	4	-0.157	118	105	inactive
TNK2	1	-0.777	47.8	27.9	inactive
TNK2	2	-0.382	84.5	64.8	inactive
TNK2	3	-0.249	18.1	15.3	inactive
TNK2	4	-0.114	95.7	88.4	inactive
REV3L	1	-0.616	73.5	47.9	inactive
REV3L	2	-0.44	34.1	25.1	inactive
REV3L	3	0.0984	83.6	89.5	inactive
REV3L	4	-0.762	24.7	14.5	inactive
SLC10A1	1	-0.0172	74	73.1	inactive
SLC10A1	2	-0.166	81.5	72.7	inactive
SLC10A1	3	0.273	102	123	inactive
SLC10A1	4	-0.142	34.8	31.5	inactive

A run of entries of the results above:
gene symbol	reagent	log2 vehicle/camptothecin viability	viability with camptothecin (% of control)	viability without drug (% of control)	outcome
CORT	4	-0.0666	103	98.8	inactive
A2M	1	-0.0761	27.8	26.3	inactive
A2M	2	0.129	92.6	101	inactive
A2M	3	-0.0426	87.1	84.6	inactive
A2M	4	-0.568	127	85.9	inactive
ATP1A4	1	-0.223	94.7	81.1	inactive
